This note sets out measurements from paper PMC12700102.

Protein sequences, listed by entry. Tags and fused reporters are not part of them.
UniProt Q5JSZ5: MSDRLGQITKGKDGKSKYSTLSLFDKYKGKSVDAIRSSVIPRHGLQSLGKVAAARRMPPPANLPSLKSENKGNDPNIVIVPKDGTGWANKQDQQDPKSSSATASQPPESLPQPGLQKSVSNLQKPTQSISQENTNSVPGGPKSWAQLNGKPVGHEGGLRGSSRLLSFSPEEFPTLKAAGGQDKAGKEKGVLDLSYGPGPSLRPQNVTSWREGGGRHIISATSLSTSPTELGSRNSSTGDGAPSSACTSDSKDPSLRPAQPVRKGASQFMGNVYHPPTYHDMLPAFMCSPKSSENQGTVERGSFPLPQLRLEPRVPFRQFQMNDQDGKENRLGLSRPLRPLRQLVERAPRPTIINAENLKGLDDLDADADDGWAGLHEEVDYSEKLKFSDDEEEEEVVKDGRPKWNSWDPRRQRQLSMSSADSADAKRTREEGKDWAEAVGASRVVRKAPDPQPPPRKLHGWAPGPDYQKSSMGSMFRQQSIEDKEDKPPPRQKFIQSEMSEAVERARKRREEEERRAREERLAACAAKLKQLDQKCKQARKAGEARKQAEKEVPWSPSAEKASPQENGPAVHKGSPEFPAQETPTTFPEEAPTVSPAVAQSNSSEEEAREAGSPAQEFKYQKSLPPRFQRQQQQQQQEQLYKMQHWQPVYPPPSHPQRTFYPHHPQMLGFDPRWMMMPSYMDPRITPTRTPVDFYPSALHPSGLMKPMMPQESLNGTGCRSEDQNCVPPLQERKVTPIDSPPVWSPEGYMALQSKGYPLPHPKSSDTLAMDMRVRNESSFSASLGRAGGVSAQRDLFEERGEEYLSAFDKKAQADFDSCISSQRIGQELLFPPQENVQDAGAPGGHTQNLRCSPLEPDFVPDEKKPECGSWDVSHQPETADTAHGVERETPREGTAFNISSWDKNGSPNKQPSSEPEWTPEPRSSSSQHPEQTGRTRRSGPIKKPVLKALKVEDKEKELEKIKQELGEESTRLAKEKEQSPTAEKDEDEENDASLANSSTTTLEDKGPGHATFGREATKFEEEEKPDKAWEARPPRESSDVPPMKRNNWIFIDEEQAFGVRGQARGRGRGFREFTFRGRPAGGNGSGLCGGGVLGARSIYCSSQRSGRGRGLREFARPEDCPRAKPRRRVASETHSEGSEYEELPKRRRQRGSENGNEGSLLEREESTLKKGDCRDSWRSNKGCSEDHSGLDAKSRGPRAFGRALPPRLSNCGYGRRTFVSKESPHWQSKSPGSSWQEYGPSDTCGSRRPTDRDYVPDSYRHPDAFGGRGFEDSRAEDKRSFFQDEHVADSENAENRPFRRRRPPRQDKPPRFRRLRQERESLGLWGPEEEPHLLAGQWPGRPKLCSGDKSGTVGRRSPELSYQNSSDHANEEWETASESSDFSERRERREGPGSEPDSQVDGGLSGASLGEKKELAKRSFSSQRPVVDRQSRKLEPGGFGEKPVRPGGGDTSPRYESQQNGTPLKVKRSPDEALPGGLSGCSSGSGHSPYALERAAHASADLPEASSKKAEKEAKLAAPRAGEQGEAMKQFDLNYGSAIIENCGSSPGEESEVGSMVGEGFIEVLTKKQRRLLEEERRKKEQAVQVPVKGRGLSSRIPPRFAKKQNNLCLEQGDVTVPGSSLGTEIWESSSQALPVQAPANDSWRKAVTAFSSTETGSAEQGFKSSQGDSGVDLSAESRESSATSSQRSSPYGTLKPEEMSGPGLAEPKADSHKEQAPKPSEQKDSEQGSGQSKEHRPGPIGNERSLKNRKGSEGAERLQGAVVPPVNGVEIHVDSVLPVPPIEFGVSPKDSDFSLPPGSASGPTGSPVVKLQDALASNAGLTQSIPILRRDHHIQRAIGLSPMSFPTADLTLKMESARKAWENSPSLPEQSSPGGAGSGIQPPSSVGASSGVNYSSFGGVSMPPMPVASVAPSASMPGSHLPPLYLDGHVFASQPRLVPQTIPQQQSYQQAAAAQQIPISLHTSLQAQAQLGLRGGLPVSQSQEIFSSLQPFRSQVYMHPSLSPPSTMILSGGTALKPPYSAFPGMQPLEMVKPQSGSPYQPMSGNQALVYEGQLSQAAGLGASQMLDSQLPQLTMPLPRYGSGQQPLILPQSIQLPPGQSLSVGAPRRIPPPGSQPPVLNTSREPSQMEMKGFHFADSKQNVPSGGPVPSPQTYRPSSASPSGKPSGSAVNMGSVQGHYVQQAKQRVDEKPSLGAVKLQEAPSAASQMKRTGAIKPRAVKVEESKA
UniProt O15371: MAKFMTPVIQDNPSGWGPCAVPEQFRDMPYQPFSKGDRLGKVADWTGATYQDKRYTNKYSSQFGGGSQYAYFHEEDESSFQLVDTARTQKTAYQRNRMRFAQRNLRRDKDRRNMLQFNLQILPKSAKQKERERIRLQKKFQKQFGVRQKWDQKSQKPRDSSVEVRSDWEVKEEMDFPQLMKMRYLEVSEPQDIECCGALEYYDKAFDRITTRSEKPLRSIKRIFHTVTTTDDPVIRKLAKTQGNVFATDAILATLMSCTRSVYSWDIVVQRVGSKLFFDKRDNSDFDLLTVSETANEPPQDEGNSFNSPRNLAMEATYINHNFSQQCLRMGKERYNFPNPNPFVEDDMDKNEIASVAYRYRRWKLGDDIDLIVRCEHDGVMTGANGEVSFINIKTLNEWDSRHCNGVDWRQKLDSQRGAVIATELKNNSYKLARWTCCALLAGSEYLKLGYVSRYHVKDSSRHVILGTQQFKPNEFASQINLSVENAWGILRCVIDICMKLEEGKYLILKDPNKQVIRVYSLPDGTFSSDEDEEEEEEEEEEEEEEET
UniProt Q99873: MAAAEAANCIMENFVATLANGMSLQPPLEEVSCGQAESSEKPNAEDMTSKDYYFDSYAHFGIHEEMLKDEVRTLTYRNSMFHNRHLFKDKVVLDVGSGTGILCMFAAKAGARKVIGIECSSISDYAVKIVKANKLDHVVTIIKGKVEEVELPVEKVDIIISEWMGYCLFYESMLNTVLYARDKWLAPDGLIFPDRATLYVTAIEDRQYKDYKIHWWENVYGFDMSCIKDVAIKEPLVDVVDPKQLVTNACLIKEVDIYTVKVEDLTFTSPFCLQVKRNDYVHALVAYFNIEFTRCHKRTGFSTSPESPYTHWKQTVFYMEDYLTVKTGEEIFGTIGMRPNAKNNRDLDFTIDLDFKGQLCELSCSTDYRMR

The target of experiment [1] is PRRC2B-long (PRRC2BL), HA-tagged (human) (UniProt Q5JSZ5). The experiment can be described thus: co-IP; as the co-IP without RNase, but RNase A added to the lysate (100 mg/ml in the methods and the legend of Fig. 3, 100 μg/ml in the legend of Fig. 4).
For experiment [2] the target is unchanged. The experiment can be described thus: co-IP; HA-tagged PRRC2B constructs transfected 24 h in HEK 293T; buffer B; anti-HA beads 2 h at 4°C, 3 washes; western blot of endogenous partners; without RNase A. (Immunoblotting shows a protein as a band on a membrane.)

These are yes or no findings as the source states them, for the method shown. Binding seen in cells or lysates may run through a third protein. Some results given as binding are weak or reduced against the parent protein; the word gives no strength.

With EIF3D (from UniProt O15371 1-548), the binding result in experiment [1] and in experiment [2] was “binds” each time.

As to “PRMT1 (from UniProt Q99873 1-371) (enzyme)”, the binding result in experiment [1] and in experiment [2] was “binds” in each case.

B1: EIF4G2 (protein, UniProt P78344 1-907)
chain: MESAIAEGGASRFSASSGGGGSRGAPQHYPKTAGNSEFLGKTPGQNAQKWIPARSTRRDDNSAANNSANEKERHDAIFRKVRGILNKLTPEKFDKLCLELLNVGVESKLILKGVILLIVDKALEEPKYSSLYAQLCLRLAEDAPNFDGPAAEGQPGQKQSTTFRRLLISKLQDEFENRTRNVDVYDKRENPLLPEEEEQRAIAKIKMLGNIKFIGELGKLDLIHESILHKCIKTLLEKKKRVQLKDMGEDLECLCQIMRTVGPRLDHERAKSLMDQYFARMCSLMLSKELPARIRFLLQDTVELREHHWVPRKAFLDNGPKTINQIRQDAVKDLGVFIPAPMAQGMRSDFFLEGPFMPPRMKMDRDPLGGLADMFGQMPGSGIGTGPGVIQDRFSPTMGRHRSNQLFNGHGGHIMPPTQSQFGEMGGKFMKSQGLSQLYHNQSQGLLSQLQGQSKDMPPRFSKKGQLNADEISLRPAQSFLMNKNQVPKLQPQITMIPPSAQPPRTQTPPLGQTPQLGLKTNPPLIQEKPAKTSKKPPPSKEELLKLTETVVTEYLNSGNANEAVNGVREMRAPKHFLPEMLSKVIILSLDRSDEDKEKASSLISLLKQEGIATSDNFMQAFLNVLDQCPKLEVDIPLVKSYLAQFAARAIISELVSISELAQPLESGTHFPLFLLCLQQLAKLQDREWLTELFQQSKVNMQKMLPEIDQNKDRMLEILEGKGLSFLFPLLKLEKELLKQIKLDPSPQTIYKWIKDNISPKLHVDKGFVNILMTSFLQYISSEVNPPSDETDSSSAPSKEQLEQEKQLLLSFKPVMQKFLHDHVDLQVSALYALQVHCYNSNFPKGMLLRFFVHFYDMEIIEEEAFLAWKEDITQEFPGKGKALFQVNQWLTWLETAEEEESEEEAD
On to B1, for which the binding entry in experiment [2] was “binds”.
